We go through one molecule from article PMC12778051.

In the experiment the target is Myc-LUBEL^1-872 (Drosophila melanogaster) (UniProt Q8IPJ3). The experiment in a line: co-IP; HA-LUBEL^1-872 and Myc-LUBEL^1-872 coexpressed in S2 cells; anti-HA IP, immunoblot. A general note: Immunoblotting shows a protein as a band on a membrane.

Results are given in words; binding and its absence hold for the method and conditions named. In cells and extracts the contact can be indirect. Some results given as binding are weak or reduced against the parent protein; the word gives no strength. Sequences can lack the tags named with a protein.

B1: Myc-LUBEL^1-872 (domain or fragment, UniProt Q8IPJ3 1-872)
chain: MTTHQLLNKNVRTMPSWVMEANDRIGPKPPPTPPNGVAGGLPKAPALPPKAKSTPEPDYEIIEFSSQQYSNEPMKTTVIRTKTPDNKLKCTLCGSQNPWVTCAECAGQIFCASCDDMFHKHPKRKQHMRKAVEQGTPPIPPKAQAGGGAPPPVAPPRRSKRGLLTPFLGRKDQMLPPPSPTPSHKSLGGWRGSLGGGATPPVPPIATSSANQMNNRPLPDPPRSEGGGSSRSGTPKSVFDTIQRPPSVQLEKIKSKASATLDRMAILQQRYRQQKARQDLSANSEQHLSNEAGFEHWSNISPSPSHFRSGSMSSGLNSSHFDLSDDSQFHNSLLLQQRQAAGAQRRQMSTSVFNLNSNPRRPLSEAQNGGAWLANQRIQQAQSLAQLNCAGCQQSQQHPGWAQHPHQALPQHQHPDQWSQFGSQQQFNNSNLSLNVGPGYMSQQHHPHYPPPVFMTQRGMMPNVYPGAPGYPMMHPGVMGMPPSAASRAASRSRYAASPTPSRKSMSLRRKRNSYVDDELTDDEDSDQDDRRSLVSNRSGMTSASRSQHHQNHIQPRQRRLSSASQLIASDELDGDQVHHKMRNRRGSIAKSVQSEWLPERRENEGTLTRNKTATDSARTSRIYSDLESEGSGARALVQAKIQQKLQEADQHKSSKKAEPKRKPEMKDENTQAAAVVQKVVVPPAHEESASEYEEVVEEVTASESEAEAQTAPDPQEVPDEIGADDLGPPPSTPDHEWECEFCTFVNEPNIKICSICCKTPSKPPVQPNKAKKVEEKPQPPAEKSNNIKASSKTETKPVQKPTTKSQQPSQKSVAALSKTTHTNSTSSSKASPAVNSKTTSSIPIKTPSKSTLKTSSENESDNSLAKSLLHK
As to B1, the binding result is “binds”.
